In publication PMC10484741, “Human TRMT2A methylates tRNA and contributes to translation fidelity”:

What was measured:
Experiment in all cases: EMSA
[1] = molecular target: hTRMT2A FL (WT) (Homo sapiens) (UniProt Q8IZ69); conditions: poly(U) competitor, EMSA: 50 mM HEPES-NaOH pH 7.5, 150 mM NaCl, 4% glycerol, 2.5 ng/ul poly(U), 5 nM RNA, 0-1.25 uM protein (final, as stated), 20 min room temperature, recombinant protein, residues 1-625, protein details: N-terminal His-SUMO tag cleaved, label: 5'-32P
[2] = molecular target: hTRMT2A RBD (Homo sapiens) (UniProt Q8IZ69); conditions: micromolar KD range, poly(U) competitor; EMSA: 50 mM HEPES-NaOH pH 7.5, 150 mM NaCl, 4% glycerol, 2.5 ng/ul poly(U), 5 nM RNA, 0-1.25 uM protein (final, as stated), 20 min room temperature; recombinant protein; residues 69-147; protein details: N-terminal SUMO tag cleaved; label: 5'-32P
[3] = molecular target: T1, hTRMT2A Central domain (Homo sapiens) (UniProt Q8IZ69); conditions: micromolar KD range, poly(U) competitor; EMSA: 50 mM HEPES-NaOH pH 7.5, 150 mM NaCl, 4% glycerol, 2.5 ng/ul poly(U), 5 nM RNA, 0-1.25 uM protein (final, as stated), 20 min room temperature; recombinant protein; residues 237-414; protein details: N-terminal His-SUMO tag retained; label: 5'-32P
T1 sequence (looked up): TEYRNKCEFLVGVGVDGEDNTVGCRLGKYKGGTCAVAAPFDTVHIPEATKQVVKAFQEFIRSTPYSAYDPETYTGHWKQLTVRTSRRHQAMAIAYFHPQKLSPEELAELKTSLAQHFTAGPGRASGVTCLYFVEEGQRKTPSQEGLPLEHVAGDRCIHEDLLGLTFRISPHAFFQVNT

[4] = molecular target: hTRMT2A CNM (catalytic nucleophile mutant) C538A (Homo sapiens) (UniProt Q8IZ69); conditions: slightly less than WT, still nM KD range, poly(U) competitor; EMSA: 50 mM HEPES-NaOH pH 7.5, 150 mM NaCl, 4% glycerol, 2.5 ng/ul poly(U), 5 nM RNA, 0-1.25 uM protein (final, as stated), 20 min room temperature; recombinant protein; residues 1-625; protein details: N-terminal His-SUMO tag cleaved; label: 5'-32P
[5] = molecular target: hTRMT2A Fusion domain del241-412 (Homo sapiens) (UniProt Q8IZ69); conditions: micromolar KD range, poly(U) competitor; EMSA: 50 mM HEPES-NaOH pH 7.5, 150 mM NaCl, 4% glycerol, 2.5 ng/ul poly(U), 5 nM RNA, 0-1.25 uM protein (final, as stated), 20 min room temperature; recombinant protein; residues 69-590; protein details: N-terminal SUMO tag cleaved; label: 5'-32P
[6] = molecular target: hTRMT2A CBM (catalytic base mutant) E581A (Homo sapiens) (UniProt Q8IZ69); conditions: slightly less than WT, still nM KD range, poly(U) competitor; EMSA: 50 mM HEPES-NaOH pH 7.5, 150 mM NaCl, 4% glycerol, 2.5 ng/ul poly(U), 5 nM RNA, 0-1.25 uM protein (final, as stated), 20 min room temperature; recombinant protein; residues 1-625; protein details: N-terminal His-SUMO tag cleaved; label: 5'-32P

GAUGGAUAAUAGAAUCUCUUUCAACUAAUAAGAGACAUUAUCACGAAACAAU [ASH1 E3 element mRNA]
binding result ([1]; (high) nanomolar KD range): binds more weakly

CCGAGUUCAAAUCUCGG [tRNAGln T-loop (49-65)]
binding result ([1]; weaker shift, most RNA free): binds more weakly

GGUCCCAUGGUGUAAUGGUUAGCACUCUGGACUUUGAAUCCAGCGAUCCGAGUUCAAAUCUCGGUGGGACCUCCA [tRNAGln-TTG]
binding result [2]: binds more weakly
binding result [3]: binds more weakly
binding result [4]: binds more weakly
binding result [5]: binds more weakly
binding result [6]: binds more weakly

A weaker result is weaker than the reference pair of the same experiment. For some of these results: Tags and fusion partners may be left off the protein sequences shown.
